This passage reports binding signal results from publication PMC7819943, “Rice protein-binding microarrays: a tool to detect cis-acting elements near promoter regions in rice”.

Some of the results follow.

The assay has as its target T1, OsSMF1 (Oryza sativa, UniProt Q6ZLB0 1-436).
T1 sequence: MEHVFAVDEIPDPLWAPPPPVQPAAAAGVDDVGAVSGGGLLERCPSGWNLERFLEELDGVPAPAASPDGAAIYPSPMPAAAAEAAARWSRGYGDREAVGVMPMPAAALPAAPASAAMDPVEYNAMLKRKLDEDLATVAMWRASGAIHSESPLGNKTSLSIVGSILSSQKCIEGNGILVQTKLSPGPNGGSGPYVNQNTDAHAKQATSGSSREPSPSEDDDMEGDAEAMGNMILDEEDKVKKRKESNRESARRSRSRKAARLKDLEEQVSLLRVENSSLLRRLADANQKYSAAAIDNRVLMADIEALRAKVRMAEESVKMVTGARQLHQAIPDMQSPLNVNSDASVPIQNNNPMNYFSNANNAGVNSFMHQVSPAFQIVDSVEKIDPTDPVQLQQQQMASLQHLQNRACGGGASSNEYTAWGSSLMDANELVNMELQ
The assay can be described thus: protein-binding microarray (RPBM); PBS, 2% BSA, 51.3 ng/ul salmon testes DNA, 50 uM zinc acetate, 200 nM TF, 25 C, 1 h; high values mean tight binding. The conditions noted are these: protein: recombinant; tags: N-terminal polyhistidine and DsRed monomer fusion (pET32a); chain copies: 2; label: CyDye5-dUTP incorporated in the synthesized complementary strand; 3' TTTTT single-stranded linker to array surface; dsDNA, one strand shown. Summed up:
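Binding signal is defined as the fluorescence intensity of each feature in arbitrary units, read on an Axon 4000B scanner. Transcription factors with N-terminal polyhistidine and DsRed fusions came from E. coli BL21-CodonPlus and were purified on Ni–NTA. They were incubated at 200 nM for 1 h at 25 °C on a custom Agilent array that had been made double-stranded with Cy5-dUTP, with 50 µM zinc acetate present, and the array was washed.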
As for “ATCAACGCCGGTGGCGTCCCCAACGCCGGCCACGTGGAGCCGGAGTCACCTAGTGCAG”, the binding signal is 11700 fluorescence intensity (a.u.).

For the sequence “AGTATCAGATTCCAACTCACATGCCACGTCACATGCATGCCGGAGTCACCTAGTGCAG”, the binding signal is 42200 fluorescence intensity (a.u.).

As to “AATATTAATGGTGTTCTATATATCTATATACCGCTAATGCCGGAGTCACCTAGTGCAG”, the binding signal is 26100 fluorescence intensity (a.u.).

In the case of “TGGCTTCATCACCACAGCTCAGCAGCATCATCGCCTTCGCCGGAGTCACCTAGTGCAG”, the binding signal was 4010 fluorescence intensity (a.u.).

In the case of “GCTTAAGGTGTGGTGGCGTGTTTTGATGCCAACAGTAAGACGGAGTCACCTAGTGCAG”, the binding signal is 3160 fluorescence intensity (a.u.).

As to “CCCCGGCGCACGGATACCTTCCACGTGTTGCGGGCCGGGCCGGAGTCACCTAGTGCAG”, the binding signal was 11100 fluorescence intensity (a.u.).

For the sequence “CGGCGGCGGAGGAGGAGGAGGAGGAGGGCGCGGGGCGGCGCGGAGTCACCTAGTGCAG”, the binding signal was 3610 fluorescence intensity (a.u.).

As to “TGATGGTATGATTTTAATTTTGTGCGAATTCGAATGACATCGGAGTCACCTAGTGCAG”, the binding signal was 3410 fluorescence intensity (a.u.).

Take “TGTGGGTGTGGGCTATTAATAATCGCAGCGTCACTACCACCGGAGTCACCTAGTGCAG”: the binding signal is 4830 fluorescence intensity (a.u.).

In the case of “CACGAGTTACTGGTGACGTGTGTCACATCATCTATAAGAACGGAGTCACCTAGTGCAG”, the binding signal was 7740 fluorescence intensity (a.u.).

For the sequence “CGGCTTGAAAATATTTTACCACGTAAGGGAAAACGAAAACCGGAGTCACCTAGTGCAG”, the binding signal was 3750 fluorescence intensity (a.u.).

As for “CAAGGGGCAAGCTCCACATCGAGCTTGCTGCCAACCTTCCCGGAGTCACCTAGTGCAG”, the binding signal is 3400 fluorescence intensity (a.u.).

Take “GAGTGGGGCTGAAACATGCGCACGACAGCGGGCCTCATGGCGGAGTCACCTAGTGCAG”: the binding signal is 3240 fluorescence intensity (a.u.).

For the sequence “ACCACCAGCCCACCCCGATGTGTAATCACTGTGCCAGAGTCGGAGTCACCTAGTGCAG”, the binding signal is 3640 fluorescence intensity (a.u.).

For “CAGCACGTATGATAGTACTATTTTGCAACTTACAACATAACGGAGTCACCTAGTGCAG”, the binding signal is 7550 fluorescence intensity (a.u.).

On to “TGTCCATCTCCACGACACGTACACAATTACACAAACGGTCCGGAGTCACCTAGTGCAG”, for which the binding signal was 5090 fluorescence intensity (a.u.).

“GAGCGTCGCTATCTCATCCAACGGTCACTTGGTGCCCCTCCGGAGTCACCTAGTGCAG”: the binding signal was 3140 fluorescence intensity (a.u.).

In the case of “TCTACCGGAATACTGTTACGCTGACGTAGACATGAGTAAGCGGAGTCACCTAGTGCAG”, the binding signal was 8170 fluorescence intensity (a.u.).

On to “GGTGAAAGTGAGGAAGCCGTGTGAGTGACGTGTCGACGCACGGAGTCACCTAGTGCAG”, for which the binding signal is 14700 fluorescence intensity (a.u.).

For “CTCTGCTTACATAAAAGCAAAAGCAAAAGTAAACACACACCGGAGTCACCTAGTGCAG”, the binding signal is 3490 fluorescence intensity (a.u.).

For the sequence “AAGATGAAACCGAGTCGGCACCGATACGCTACGCGCGCACCGGAGTCACCTAGTGCAG”, the binding signal is 3670 fluorescence intensity (a.u.).

As to “CCTCCTGTCAGACTGTCGTCAGTGTCACACTGTCACTGTCCGGAGTCACCTAGTGCAG”, the binding signal was 6520 fluorescence intensity (a.u.).

Turning to “GGCGCCCGCCTGCTCCCGGGCCGCTGCCGCCGCGTCGCCCCGGAGTCACCTAGTGCAG”, the binding signal was 27500 fluorescence intensity (a.u.).

Consider “CAGGCTCGATGGCATACGCTATCTCAGGCTTTGCTACCATCGGAGTCACCTAGTGCAG”, for which the binding signal was 3690 fluorescence intensity (a.u.).

For “GGTTGTCTTTGCATGACTGGCCGGCTGGGTCCCCGGCCTTCGGAGTCACCTAGTGCAG”, the binding signal was 4230 fluorescence intensity (a.u.).

For “ACGATGATACAGACCAGTGGATGAACACCACGTCGTCCGTCGGAGTCACCTAGTGCAG”, the binding signal was 6350 fluorescence intensity (a.u.).

Turning to “CATGGGAGAGTAGATACCGGTGACAAGTCATCGAAGTGTACGGAGTCACCTAGTGCAG”, the binding signal is 3850 fluorescence intensity (a.u.).

For “CACGTGGGACACCGCTCCCCGGCGCTCGCCACGTGGACGCCGGAGTCACCTAGTGCAG”, the binding signal was 21700 fluorescence intensity (a.u.).

Consider “CCACGACTGGAAGTAGGAAGGTAAGAGAGAACATACGGGGCGGAGTCACCTAGTGCAG”, for which the binding signal is 9690 fluorescence intensity (a.u.).

On to “CGCCGCGCGTGCCACGTTTACTCCCGTGGGCCCCGCAACGCGGAGTCACCTAGTGCAG”, for which the binding signal is 4880 fluorescence intensity (a.u.).

As for “AAACCGACCCGTGAGCCAAGCCGCCGAGTCACTGCTCTCGCGGAGTCACCTAGTGCAG”, the binding signal is 5710 fluorescence intensity (a.u.).

As to “TATCCAATGGAACTAGGTGATGATGGATGAATGTAGGATGCGGAGTCACCTAGTGCAG”, the binding signal is 4200 fluorescence intensity (a.u.).

Take “TCCAATCTTACTACTTTAGAGGGTTTGCACGAAGATATTACGGAGTCACCTAGTGCAG”: the binding signal was 3460 fluorescence intensity (a.u.).

Turning to “TTAGCGCAGTATTTAGGTAGGAGAAGGATGGTAGACACGTCGGAGTCACCTAGTGCAG”, the binding signal was 4060 fluorescence intensity (a.u.).

Consider “GGCTCAGATTGCCTCCGCGTCAGGCCGCATCACTGGTAGGCGGAGTCACCTAGTGCAG”, for which the binding signal was 4170 fluorescence intensity (a.u.).

Turning to “ACTGGCCGCTCCGGCCACGCGTCCGCCGGCGATTGGCCGCCGGAGTCACCTAGTGCAG”, the binding signal is 3270 fluorescence intensity (a.u.).

Turning to “AACGTCCCACGTGACACCCTATATAATACCCGATGTGACACGGAGTCACCTAGTGCAG”, the binding signal is 5780 fluorescence intensity (a.u.).

Regarding “GTAGTATGTGTAGGTGATAACAGTAAGCTTGGGCCACGTACGGAGTCACCTAGTGCAG”, the binding signal was 4060 fluorescence intensity (a.u.).

As for “ACATATCAAGATGTGGGTATTCTAGCTTCAAAGACTGATTCGGAGTCACCTAGTGCAG”, the binding signal is 4140 fluorescence intensity (a.u.).

Regarding “CAGTTCATCGACGTGGCGTACCGGGTCAAGGTGTCGACCACGGAGTCACCTAGTGCAG”, the binding signal is 9770 fluorescence intensity (a.u.).

On to “GGAATTCCCAGCCCATGTCGCCACCGCTTTAGGCGCAGCCCGGAGTCACCTAGTGCAG”, for which the binding signal is 6510 fluorescence intensity (a.u.).

On to “CCTCAGGCCGCCTCTCGTGCTGTACACGTAGGATAGCTACCGGAGTCACCTAGTGCAG”, for which the binding signal is 46200 fluorescence intensity (a.u.).
